The campaign covered roughly 400,000 compounds. About 13,000 (3.2%) were called active. The inconclusive results got no clear call from the source; some entries with a clear call stand among them for comparison. The call rests on the fitted dose curve; in most records, active means well fitted cell-killing curve with a large enough effect; inconclusive means small, poorly fitted or top-dose-only effect, or effect the other way; inactive means flat fitted curve, though single readings scatter. Potencies beside an inconclusive call are fits to weak or partial responses and may not hold up.
Assay: qHTS assay for MDR1-selective chemotherapeutics: Primary screen using the drug-selected MDR subline cells KB-V1; further: nearly all actives have a fitted effect of over 60% in size
Settings: KB-V1 MDR cells viability, CellTiter-Glo, 72 h; activity change, negative = cytotoxicity: at 46.1 µM (top of the series)
Summary of the method: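 Drug-selected KB-V1 cells, grown in DMEM lacking phenol red with 10% FBS, receive compound titrations; after three days at 37 degrees C, surviving cell ATP is quantified by CellTiter-Glo luminescence and responses normalized and curve-fitted.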
On the % scale 0 is the no-effect control and ±100 the full control effect; potency means the concentration at half of the fitted maximal effect.

Structure (SMILES)	Potency	activity change, negative = cytotoxicity
COc1ccc(-n2nc(C(=O)NCc3cc(OC)ccc3OC)c3c4ccccc4n(C)c3c2=O)cc1	inconclusive: 0.651 µM [cytotoxic, full curve, poor fit]	–
CCSC1=NC2(CCN(C(=O)NC3CCCCC3)CC2)N=C1c1ccc(C)c(C)c1	–	inactive: -8.59%
Cc1ccnc(SCCn2c(N3CC(C)CC(C)C3)nc3c2c(=O)n(C)c(=O)n3C)n1 (configuration not stated)	inconclusive: 18.4 µM [cytotoxic, partial curve]	–
COC(=O)CCNC(=O)c1nn(Cc2ccccc2)c(=O)c2ccccc12	inconclusive: 18.4 µM [cytotoxic, single point]	–
CN1/C(=C/C=C(/C#N)C(N)=O)C(C)(C)c2ccccc21	inconclusive: 1.84 µM [cytotoxic, partial curve, poor fit]	–
CC(C)(C)c1csc(SCC(=O)Nc2ccc(Cl)cn2)n1	inconclusive: 18.4 µM [cytotoxic, single point]	–
COc1ccc(OC)c(NC(=O)CCc2c(C)nc3c(-c4ccccc4)c(C)nn3c2C)c1	inconclusive: 16.4 µM [cytotoxic, partial curve, poor fit]	–
CCc1cccc(NC(=O)c2ccc3c(=O)n4nc(Nc5ccccc5OC)sc4nc3c2)c1	–	inactive: -2.25%
S=C(Nc1ccccc1Cl)N(Cc1ccccc1)Cc1ccccn1	inconclusive: 20.6 µM [cytotoxic, single point]	–
O=C(OCCO)c1c(-c2ccccc2)oc2c1C(OCCO)CCC2 (configuration not stated)	–	inactive: -11.5%
O=C(COC(=O)C1(c2ccc(F)cc2)CCCC1)N1CCc2ccccc21	active: 20.6 µM	–
O=C(CNC(=O)Cc1cccc2ccccc12)NCc1ccc(F)cc1	inconclusive: 18.4 µM [cytotoxic, partial curve, poor fit]	–
CCCCN(C(=O)CCC(=O)Nc1cc(C)on1)C(C(=O)NC1CCCC1)c1ccccc1OCC (configuration not stated)	inconclusive: 16.4 µM [cytotoxic, partial curve, poor fit]	–
O=C(NCc1nnc(SCC(=O)N2CCc3ccccc32)o1)c1cccs1	inconclusive: 29.1 µM [cytotoxic, single point]	–
Cc1ccc(S(=O)(=O)c2cn(CC(=O)Nc3ccc4c(c3)OCO4)c3ccc(F)cc3c2=O)cc1	inconclusive: 29.1 µM [rising, single point]	–
CCOc1ccc2c(c1)C(N(CCN1CCOCC1)C(=S)Nc1ccccc1OC)CC(C)(C)O2 (configuration not stated)	inconclusive: 16.4 µM [cytotoxic, partial curve]	–
COc1ccc(OCC(=O)OCCN(C)C)cc1	inconclusive: 20.6 µM [rising, partial curve, poor fit]	–

Part of the list above in another layout:
Structure (SMILES),Potency,"activity change, negative = cytotoxicity"
CCSC1=NC2(CCN(C(=O)NC3CCCCC3)CC2)N=C1c1ccc(C)c(C)c1,–,inactive: -8.59%
Cc1ccnc(SCCn2c(N3CC(C)CC(C)C3)nc3c2c(=O)n(C)c(=O)n3C)n1 (configuration not stated),"inconclusive: 18.4 µM [cytotoxic, partial curve]",–
COC(=O)CCNC(=O)c1nn(Cc2ccccc2)c(=O)c2ccccc12,"inconclusive: 18.4 µM [cytotoxic, single point]",–
CN1/C(=C/C=C(/C#N)C(N)=O)C(C)(C)c2ccccc21,"inconclusive: 1.84 µM [cytotoxic, partial curve, poor fit]",–

Source: PubChem BioAssay AID1347076 (National Center for Advancing Translational Sciences (NCATS), 2019)
